Reference: patent publication US20240417734A1, “Methods for Treating Glioblastoma by Targeting Oncomirs” (University of Connecticut, priority 2021, published 2024)
At least one compound was matched to its structure with a doubt left.

Tested on: intracranial U87 tumors
Assay: Survival study, intracranial U87 tumors
Type: in vivo, mice
Description: Animals were anaesthetized using a mixture of ketamine (100 mg/kg) and xylazine (10 mg/kg) via intraperitoneal injection. Anesthetized animals were then placed in a stereotaxic frame and sterilized the scalp with betadine and alcohol. To expose the coronal and sagittal sutures, a midline scalp incision was created, and a burr hole was drilled 2 mm lateral to the sagittal suture and 0.5 mm anterior to the bregma. U87 or G22 cells ([…]) in 3 μL PBS were injected into the right stratum over 3 min using a 10-μL Hamilton syringe. The animal was left 5 min for tissue equilibration before and after infusion. When infusion was finished, the burr hole was filled with bone wax and skin was stapled and cleaned.
CED in tumor bearing mice was similar to tumor inoculation by reopening the burr hole used for tumor inoculation. A micro-infusion pump (World Precision Instruments) was used to infuse 6 μL of NPs at a rate of […].
Tumors grew for 6 days before the administration of treatment. Intracranial CED of sγPNA/BNP was conducted following the same surgical procedure as described. TMZ (25 mg/kg) in PBS was administered intraperitoneally on day 7. Animals were monitored daily and weighed every week. […] Total RNA in the tumor and contralateral hemisphere was isolated using mirVana miRNA Isolation Kit and analyzed by real-time PCR detection system as previously described.

With `Cn1nnc2c(C(N)=O)ncn2c1=O` [TMZ, Temozolomide] the “Survival, lower dose of TMZ (12.5 mg/kg)” value was “did not provide any significant improvement”.
